PubChem BioAssay AID504791, Drosophila RNAi Screening Center, 2011
The screen tested about 23,000 reagents; below is a random part of those that have a named target and a result. Of all reagents, 199 (0.86%) were called active. 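Plate-scaled ratios behind the calls are not deposited; printed light signals are raw; many rows marked increased or decreased are still called inactive.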 Not given: the direction of the score.

- Aim: 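Factors in Argonaute-based small RNA production and activity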 (primary screen)
- Cell system: Drosophila S2-derived reporter cells
- Reagents: long dsRNA against Drosophila genes, about 150-250 ng dsRNA per well (siRNA assay); about 80-120 ng (miRNA assay)
- Duration: about 5 days (siRNA assay); about 4 days (miRNA assay)
- Challenge: copper sulfate induction of reporters: 25 µM (siRNA assay); 200 mM stated (miRNA assay), 1-2 days before reading
- Detection: 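Per-well ratio of Renilla over firefly light, expressed relative to that plate's average ratio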
- Units: stable assay Renilla, run 1 in luminescence; stable assay firefly, run 1 in luminescence
- Active means: 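First-pass picks had plate-scaled ratios over 1.5 for the siRNA assay, over 1.6 for the miRNA assay, or under 0.6; two distinct dsRNAs had to score alike on retest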

CAH5 [DRSC15372] | stable assay Renilla, run 1: 7231; stable assay firefly, run 1: 4.27e5; call: inactive
Rsf1 [DRSC03423] | stable assay Renilla, run 1: 7422; stable assay firefly, run 1: 5.26e5; call: inactive
Rsf1 [DRSC21953] | stable assay Renilla, run 1: 9907; stable assay firefly, run 1: 6.03e5; call: inactive
CG42674 [DRSC10066] | stable siRNA reporter change: reporter ratio raised past the hit cutoff; stable assay Renilla, run 1: 3516; stable assay firefly, run 1: 88881; call: inactive
CG42674 [DRSC10067] | stable assay Renilla, run 1: 6011; stable assay firefly, run 1: 4.63e5; call: inactive
CG42674 [DRSC10811] | stable assay Renilla, run 1: 7219; stable assay firefly, run 1: 4.37e5; call: inactive
CG9933 [DRSC03276] | stable assay Renilla, run 1: 7719; stable assay firefly, run 1: 4.09e5; call: inactive

A portion from the list above, for reference:
CAH5 [DRSC15372] | stable assay Renilla, run 1: 7231; stable assay firefly, run 1: 4.27e5; call: inactive
Rsf1 [DRSC03423] | stable assay Renilla, run 1: 7422; stable assay firefly, run 1: 5.26e5; call: inactive

Additional entries:
Ids [DRSC08222] | stable assay Renilla, run 1: 6432; stable assay firefly, run 1: 3.97e5; call: inactive
CG14606 [DRSC12550] | stable assay Renilla, run 1: 6840; stable assay firefly, run 1: 4.46e5; call: inactive
galene [DRSC08640] | stable assay Renilla, run 1: 5842; stable assay firefly, run 1: 3.74e5; call: inactive
galene [DRSC08641] | stable assay Renilla, run 1: 5804; stable assay firefly, run 1: 3.12e5; call: inactive
CG13202 [DRSC06326] | stable assay Renilla, run 1: 5467; stable assay firefly, run 1: 3.60e5; call: inactive
